Measurements from patent US7632918B2 (Novartis Vaccines and Diagnostics, Inc., priority 2005, dated 2009).

Assay: general procedure: peptide synthesis; PyBOP or HBPyU; OSu active esters (DCC/HOSu)
Settings: late stage modification step

Q: For “decyldimethylaminopropylamide of N,N-dimethyl-eremomycin”, which step yield is on record?
A: The step yield was 65%.
